Entries after “also recorded” stand apart in the source; their conditions may differ.

For the data set, the system named is human. The following applies: for ability to take naps / dreams / normality of sleep: inventor's observation.

Take `OCCOCCN1CCN(C2=Nc3ccccc3Sc3ccccc32)CC1` [quetiapine]: the “ability to take naps” value is listed as “could again nap in the afternoon” and the “dreams / normality of sleep” value was “dreams returned”. For the same compound, the “change over time of the amount needed to get to sleep (tolerance)” value (extended use) is recorded as “did not increase”.

For the compound `Cc1ccc(-c2nc3ccc(C)cn3c2CC(=O)N(C)C)cc1` [zolpidem], the “ability to take naps” value is given as “Naps were not possible; also recorded: prevents naps” and the “dreams / normality of sleep” value is “did not have dreams”.

For the origin of these results see patent US8741888B2, “Sleep aid composition and method” (priority 2010, dated 2014).
